PubChem BioAssay AID1259425, University of Nebraska Medical Center – 2018
Screen: 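Seek colon cancer weak points whose silencing resembles KSR1 loss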 (primary screen). Cell system: HCT116 human colon cancer cells. Reagent: siRNA pool against human genes, 50 nM siRNA. Read-out: 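After 50 nM siRNA pool, branched-DNA assay measures six marker transcripts per well, minus blank, normalised to the geometric mean of two housekeeping transcripts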. Direction: BNIP3L mRNA: higher = more BNIP3L transcript after knockdown.
Here is an unselected part of about 14,000 reagents. Further read-outs or replicates are left out here. Reagent sequences are not shown. Not given: the time to read-out.

With knock-down of BIRC2, the record shows BNIP3L mRNA, set 1 = 0.0834.
Depletion of DTX2 resulted in: BNIP3L mRNA, set 1 = 0.0881.
Against MBIP, the values are BNIP3L mRNA, set 1 = 0.1.
After knock-down of FOLR2 the results were BNIP3L mRNA, set 1 = 0.115.
With knock-down of SLC22A16, the record shows BNIP3L mRNA, set 1 = 0.136.
Against CPSF7 the deposit lists BNIP3L mRNA, set 1 = 0.112.
Knock-down of C8B resulted in: BNIP3L mRNA, set 1 = 0.18.
SPAG6 showed BNIP3L mRNA, set 1 = 0.115.
COQ9 scored BNIP3L mRNA, set 1 = 0.277.
For OR2L2, the entry reads BNIP3L mRNA, set 1 = 0.123.
Against HTATSF1, the entry reads BNIP3L mRNA, set 1 = 0.0895.

Part of the list above, reformatted:
{"target":"FOLR2","BNIP3L mRNA, set 1":0.115}
{"target":"SLC22A16","BNIP3L mRNA, set 1":0.136}

The listing continues.
Depletion of CHIC2 came out at: BNIP3L mRNA, set 1 = 0.121.
After knock-down of PRKCSH the results were BNIP3L mRNA, set 1 = 0.139.
Against HLA-DMB, the values are BNIP3L mRNA, set 1 = 0.0826.
Knock-down of DAPK1 gave: BNIP3L mRNA, set 1 = 0.179.
For MAP1LC3B the deposit lists BNIP3L mRNA, set 1 = 0.162.
For NCK1, the values are BNIP3L mRNA, set 1 = 0.0715.
Silencing of GPR155 resulted in: BNIP3L mRNA, set 1 = 0.158.
With knock-down of SLC33A1 the results were BNIP3L mRNA, set 1 = 0.0571.
Knock-down of LCMT2 gave: BNIP3L mRNA, set 1 = 0.108.
Against APOM the deposit lists BNIP3L mRNA, set 1 = 0.109.
Knock-down of GAPDHS came out at: BNIP3L mRNA, set 1 = 0.0933.
Knock-down of CPM came out at: BNIP3L mRNA, set 1 = 0.114.
Against NRG1, the values are BNIP3L mRNA, set 1 = 0.0393.
For SF3B4, the entry reads BNIP3L mRNA, set 1 = 0.0653.
With knock-down of ARRDC2, the screen gave BNIP3L mRNA, set 1 = 0.0863.
RAD52 gave BNIP3L mRNA, set 1 = 0.0865.
After knock-down of LIAS, the record shows BNIP3L mRNA, set 1 = 0.0803.
